In PubChem BioAssay AID192 (DTP/NCI, 2004):
The list does not hold the whole screen: it gathers tests that were run many times, whatever their T/C, doses with no T/C, and many T/C values between a quarter and a half above the control. Other doses and runs of a compound stand elsewhere. T/C is the treated group as % of the vehicle group. Some entries give survivors of the animals treated and no T/C: the source files T/C as zero there, which appears to mark a toxic dose or a test without result, not a measured value. Some survivor counts are full or nearly so, which does not show that the dose was tolerated: the source hardly ever lists a survival T/C far under the control, and the zero likely stands for such cases as well. Counts of survivors are from the toxicity check (mostly the fifth day) where no day follows; animals may have died later. Schedules are NCI's codes, read here as Q, the interval in days (D) or hours (H), X, the number of doses. Marks such as (2×) stand for listed records that agree. Where survival is the endpoint, this PubChem deposit counts one and a half times the control or more as active, and values a quarter to a half above the control carry no call in these data; other NCI protocols may use other cut-offs.

Test system: BDF1 mice, B16 melanoma ip, median survival T/C
Test: NCI In Vivo Anticancer Drug Screen. Data for tumor model B16 Melanoma (intraperitoneal) in B6D2F1 (BDF1) mice
Settings: T/C endpoint: median survival time, higher T/C = longer survival
Method in brief: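 Tumor-bearing mice received test compound or vehicle. Survival or tumor size was then measured in both groups. The treated-group figure was divided by the control-group figure.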

[1] = dose: 100.0 mg/kg/injection, schedule: Q01DX009 (ip), vehicle: saline with Tween-80
[2] = dose: 200.0 mg/kg/injection, schedule: Q01DX009 (ip), vehicle: saline with Tween-80
[3] = dose: 100.0 mg/kg/injection, schedule: Q01DX009 (ip), vehicle: Klucel (hydroxypropylcellulose) (HPC)
[4] = dose: 200.0 mg/kg/injection, schedule: Q01DX009 (ip), vehicle: Klucel (hydroxypropylcellulose) (HPC)
[5] = dose: 400.0 mg/kg/injection, schedule: Q01DX009 (ip), vehicle: Klucel (hydroxypropylcellulose) (HPC)
[6] = dose: 50.0 mg/kg/injection, schedule: Q01DX009 (ip), vehicle: saline with Tween-80
[7] = dose: 400.0 mg/kg/injection, schedule: Q01DX009 (ip), vehicle: saline with Tween-80
[8] = dose: 12.5 mg/kg/injection, schedule: Q01DX009 (ip), vehicle: Klucel (hydroxypropylcellulose) (HPC)
[9] = dose: 25.0 mg/kg/injection, schedule: Q01DX009 (ip), vehicle: Klucel (hydroxypropylcellulose) (HPC)
[10] = dose: 50.0 mg/kg/injection, schedule: Q01DX009 (ip), vehicle: Klucel (hydroxypropylcellulose) (HPC)

Q: Which survivor count [1] does the source give for `O=C(O)CNC(=O)C(Br)Cc1ccccc1` (stereo unspecified) here?
A: 10 of 10

Q: And the survivor count [2]?
A: 10 of 10

Q: Which results are given for `c1ccc(-c2cc(-c3ccccc3)cc(-c3ccccc3)c2)cc1`?
A: survivor count [3]: 10 of 10; survivor count [4]: 9 of 10; survivor count [5]: 10 of 10

Q: For `CCCCCCCCCCCC(c1ccccc1)[N+](C)(C)Cc1ccccc1` (stereo unspecified), which survivor count (dose: 4.0 mg/kg/injection, schedule: Q01DX009 (ip), vehicle: saline sonified) is on record?
A: 0 of 6

Q: For `FC(F)(F)c1ccc2c(c1)N(CCCN1CCN(CC[n+]3ccccc3)CC1)c1ccccc1S2`, which survivor count (dose: 2.5 mg/kg/injection, schedule: Q01DX009 (ip), vehicle: saline) is on record?
A: 10 of 10

Q: What about the survivor count (dose: 20.0 mg/kg/injection, schedule: Q01DX009 (ip), vehicle: saline) of the same molecule?
A: 0 of 10

Q: How did the T/C (dose: 12.5 mg/kg/injection, schedule: Q01DX009 (ip), vehicle: saline) turn out when `COc1cc(N(CCCl)CCCl)ccc1NC(=O)c1ccccc1` was run?
A: 142 % of control

Q: What about the T/C (dose: 25.0 mg/kg/injection, schedule: Q01DX009 (ip), vehicle: saline) of the same molecule?
A: 130 % of control

Q: What about the survivor count (dose: 50.0 mg/kg/injection, schedule: Q01DX009 (ip), vehicle: saline) of the same molecule?
A: 8 of 8

Q: What about the survivor count (dose: 100.0 mg/kg/injection, schedule: Q01DX009 (ip), vehicle: saline) of the same molecule?
A: 0 of 8

Q: `O=C1/C(=N/O)CCc2ccccc21` was tested. Which survivor count [4] did it give?
A: 7 of 10

Q: `CCCCC(=O)OCC1OC(n2cnc3c(=S)nc[nH]c32)C(OC(=O)CCCC)C1OC(=O)CCCC` (stereo unspecified) was tested. Which survivor count [6] did it give?
A: 10 of 10

Q: And the survivor count [1]?
A: 9 of 10

Q: What about the survivor count [2] of the same molecule?
A: 10 of 10

Q: `O=C1CCCN1` was tested. Which survivor count (dose: 200.0 mg/kg/injection, schedule: Q01DX009 (ip), vehicle: saline) did it give?
A: 6 of 6

Q: How did the survivor count [6] turn out when `CCc1cc2c(cc1C(=O)CBr)C(C)(C)CCC2(C)C` was run?
A: 10 of 10

Q: What about the survivor count [1] of the same molecule?
A: 7 of 10

Q: Which results are given for `CCC[CH2][Sn]([CH2]CCC)([S]C#N)[S]C#N`?
A: survivor count (dose: 6.0 mg/kg/injection, schedule: Q01DX009 (ip), vehicle: saline with Tween-80): 2 of 10; survivor count (dose: 12.0 mg/kg/injection, schedule: Q01DX009 (ip), vehicle: saline with Tween-80): 0 of 10

Q: `CCC1CN2CCC3(C(=O)Nc4ccccc43)C2CC1/C(=C/OC)C(=O)OC` (stereo unspecified) was tested. Which survivor count [1] did it give?
A: 3 of 10

Q: And the survivor count [2]?
A: 0 of 10

Q: And the survivor count [7]?
A: 0 of 10

Q: Which survivor count [5] does the source give for `Cc1ccc(C)c(NC(=O)Nc2cccc(Cl)c2)c1` here?
A: 9 of 10

Q: What does the source list for `Cc1cc(N(C)C)cc(C)c1N=Nc1cc[n+]([O-])cc1`?
A: survivor count [1]: 10 of 10; survivor count [2]: 7 of 10; survivor count [7]: 0 of 10

Q: What does the source list for `CC(=O)OC1C(=O)C(O)C(C)OC1O[C@@H]1C[C@@]2(C)[C@@H]3CC=C4[C@@H](C[C@H](O)C(=O)C4(C)C)[C@]3(C)C(=O)C[C@]2(C)[C@H]1[C@@](C)(O)C(=O)/C=C/C(C)(C)O` (stereo partly specified)?
A: survivor count (dose: 0.5 mg/kg/injection, schedule: Q01DX009 (ip), vehicle: saline): 6 of 6; survivor count (dose: 4.0 mg/kg/injection, schedule: Q01DX009 (ip), vehicle: saline): 3 of 6

Q: How did the T/C [8] turn out when `Ic1ncnc2c1ncn2C1CCCO1` (stereo unspecified) was run?
A: 126 % of control

Q: And the T/C [9]?
A: 126 % of control

Q: What about the T/C [10] of the same molecule?
A: 129 % of control

Q: What about the survivor count [5] of the same molecule?
A: 6 of 10

Q: How did the survivor count (dose: 7.5 mg/kg/injection, schedule: Q01DX009 (ip), vehicle: Klucel (hydroxypropylcellulose) (HPC)) turn out when `c1ccc([As+](c2ccccc2)(c2ccccc2)c2ccccc2)cc1` was run?
A: 10 of 10

Q: What does the source list for `CCOC(=O)CCC[P+](c1ccccc1)(c1ccccc1)c1ccccc1`?
A: T/C (dose: 10.0 mg/kg/injection, schedule: Q01DX009 (ip), vehicle: saline with Tween-80): 127 % of control; T/C (dose: 30.0 mg/kg/injection, schedule: Q01DX009 (ip), vehicle: saline with Tween-80): 129 % of control; T/C (dose: 44.0 mg/kg/injection, schedule: Q01DX009 (ip), vehicle: saline with Tween-80): 133 % of control

Q: Which survivor count (dose: 200.0 mg/kg/injection, schedule: Q04DX003 (ip), vehicle: saline with Tween-80) does the source give for `CC12NC(=O)NC1(C)NC(=O)N2` (stereo unspecified) here?
A: 9 of 10

Q: What about the survivor count (dose: 400.0 mg/kg/injection, schedule: Q04DX003 (ip), vehicle: saline with Tween-80) of the same molecule?
A: 6 of 10

Q: `COC1CC(C)C(OC)c2cc(O)cc(c2O)NC(=O)/C(C)=C/C=C\C(C)C(OC(N)=O)/C(C)=C\C(C)C1OC` (stereo unspecified) was tested. Which T/C (dose: 1.25 mg/kg/injection, schedule: Q01DX009 (ip), vehicle: Klucel (hydroxypropylcellulose) (HPC), evaluated on day 45) did it give?
A: 137 % of control

Q: And the T/C (dose: 1.25 mg/kg/injection, schedule: Q01DX009 (ip), vehicle: Klucel (hydroxypropylcellulose) (HPC), evaluated on day 60)?
A: 149 % of control

Q: And the survivor count (dose: 10.0 mg/kg/injection, schedule: Q01DX009 (ip), vehicle: Klucel (hydroxypropylcellulose) (HPC))?
A: 0 of 10 (2×)

Q: And the survivor count (dose: 10.0 mg/kg/injection, schedule: Q01DX009 (ip), vehicle: saline + alcohol)?
A: 3 of 10

Q: And the survivor count (dose: 20.0 mg/kg/injection, schedule: Q01DX009 (ip), vehicle: saline + alcohol)?
A: 1 of 10

Q: Which results are given for `COc1cc2c(cc1OC)C1CC(=O)C(CC(C)C)CN1CC2` (stereo unspecified)?
A: survivor count [8]: 9 of 10; survivor count [4]: 9 of 10; survivor count [5]: 3 of 10

Q: For `NNC(=O)c1ccc(Cl)cc1Cl`, which survivor count [10] is on record?
A: 10 of 10

Q: What about the survivor count (dose: 50.0 mg/kg/injection, schedule: Q04DX003 (ip), vehicle: Klucel (hydroxypropylcellulose) (HPC)) of the same molecule?
A: 6 of 10

Q: For `O=NN(CCCl)C(=O)Nc1ccc2c3c(cccc13)-c1ccccc1-2`, which T/C (dose: 6.25 mg/kg/injection, schedule: Q01DX009 (ip), vehicle: Klucel (hydroxypropylcellulose) (HPC)) is on record?
A: 147 % of control

Q: What about the T/C [8] of the same molecule?
A: 135 % of control

Q: What about the T/C [9] of the same molecule?
A: 134 % of control

Q: And the T/C [10]?
A: 131 % of control

Q: What about the T/C [3] of the same molecule?
A: 148 % of control

Q: What about the survivor count [4] of the same molecule?
A: 7 of 10
